Data taken from patent US20040204388A1 (UCB, published 2004).
No constants are given. Whether binding was seen depends on the method and setting. In cells and extracts the contact can be indirect. Some results given as binding are weak or reduced against the parent protein; the word gives no strength.

Chains of the proteins cited; added tags and fusions are not shown. Lines headed by an entry give the natural chain unless they say otherwise; changes in a name come on top.
UniProt Q02563: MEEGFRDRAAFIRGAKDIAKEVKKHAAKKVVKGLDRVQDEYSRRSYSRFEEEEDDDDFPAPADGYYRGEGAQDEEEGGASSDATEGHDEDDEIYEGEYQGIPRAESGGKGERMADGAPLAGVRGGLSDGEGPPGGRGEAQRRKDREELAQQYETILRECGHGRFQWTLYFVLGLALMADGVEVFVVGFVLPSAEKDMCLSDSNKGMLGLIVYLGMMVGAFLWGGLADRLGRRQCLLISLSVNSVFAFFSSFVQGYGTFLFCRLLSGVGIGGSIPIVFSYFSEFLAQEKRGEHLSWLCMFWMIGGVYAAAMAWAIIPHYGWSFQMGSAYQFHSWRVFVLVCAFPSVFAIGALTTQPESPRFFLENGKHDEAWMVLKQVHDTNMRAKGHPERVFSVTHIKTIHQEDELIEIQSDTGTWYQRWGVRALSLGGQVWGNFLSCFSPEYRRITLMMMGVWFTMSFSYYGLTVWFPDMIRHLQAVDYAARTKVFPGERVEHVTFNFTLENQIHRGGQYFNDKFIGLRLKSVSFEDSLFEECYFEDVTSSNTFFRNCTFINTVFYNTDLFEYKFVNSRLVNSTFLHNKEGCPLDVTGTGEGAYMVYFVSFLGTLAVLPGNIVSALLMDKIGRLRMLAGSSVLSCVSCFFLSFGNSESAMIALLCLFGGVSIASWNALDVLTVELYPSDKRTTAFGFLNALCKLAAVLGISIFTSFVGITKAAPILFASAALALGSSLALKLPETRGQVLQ
UniProt P21707: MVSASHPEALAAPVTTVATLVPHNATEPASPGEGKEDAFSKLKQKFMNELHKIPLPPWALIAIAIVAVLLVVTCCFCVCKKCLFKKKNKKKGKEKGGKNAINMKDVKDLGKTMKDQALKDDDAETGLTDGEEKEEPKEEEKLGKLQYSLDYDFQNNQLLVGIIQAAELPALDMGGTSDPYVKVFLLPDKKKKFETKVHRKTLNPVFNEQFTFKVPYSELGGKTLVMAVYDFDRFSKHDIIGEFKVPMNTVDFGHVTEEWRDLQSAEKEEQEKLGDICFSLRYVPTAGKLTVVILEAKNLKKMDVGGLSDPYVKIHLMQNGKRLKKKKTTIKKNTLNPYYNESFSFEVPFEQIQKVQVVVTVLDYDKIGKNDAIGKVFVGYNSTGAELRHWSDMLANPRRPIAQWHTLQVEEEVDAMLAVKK

Experiments:
[1] = biological target: SV2A (rat; native protein of rat brain membranes, solubilized in n-dodecyl-β-D-maltoside; also endogenous in PC12bs cells) (rat) (UniProt Q02563); assay: co-immunopurification with anti-SV2A antibodies and protein A-Sepharose from solubilized rat brain membranes, Western blot
[2] = biological target: SV2A (rat; native protein of rat brain membranes, solubilized in n-dodecyl-β-D-maltoside; also endogenous in PC12bs cells) (rat) (UniProt Q02563); assay: co-purification: fractions immunopurified with anti-SV2A antibodies from solubilized rat brain membranes, Western blot for synaptotagmin
[3] = biological target: SV2A (rat; native protein of rat brain membranes, solubilized in n-dodecyl-β-D-maltoside; also endogenous in PC12bs cells) (rat) (UniProt Q02563); assay: co-immunopurification with anti-SV2A antibodies, Western blot (FIG. 22)

binding [1]: binds | binding [2]: binds | binding [3]: binds
Substance: synaptotagmin (native, from solubilized rat brain membranes) (from UniProt P21707 1-421)
